Our source for the binding values is article doi:10.1101/830018 (bioRxiv, 2019).

Sequences of proteins named here, by UniProt entry; tags and fusion partners are left off. A change or cut given only in a name is not applied to a line headed by its entry.
UniProt Q64385: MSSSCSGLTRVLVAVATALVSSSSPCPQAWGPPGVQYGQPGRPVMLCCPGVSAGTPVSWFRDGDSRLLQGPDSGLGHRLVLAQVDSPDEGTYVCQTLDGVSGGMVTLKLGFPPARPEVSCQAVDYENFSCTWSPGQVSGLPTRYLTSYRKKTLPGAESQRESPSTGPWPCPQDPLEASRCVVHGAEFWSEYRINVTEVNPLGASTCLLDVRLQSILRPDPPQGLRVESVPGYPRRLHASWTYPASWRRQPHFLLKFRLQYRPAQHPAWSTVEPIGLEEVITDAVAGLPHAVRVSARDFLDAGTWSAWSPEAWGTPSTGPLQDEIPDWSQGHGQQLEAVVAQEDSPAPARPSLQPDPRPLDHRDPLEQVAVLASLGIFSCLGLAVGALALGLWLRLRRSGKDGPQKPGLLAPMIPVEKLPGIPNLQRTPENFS

Results are given in words; binding and its absence hold for the method and conditions named. Binding calls can cover weak binding; strength is not graded here.

In this test the target is mouse interleukin 11 receptor alpha chain 1 (mouse) (UniProt Q64385). As to the kind of experiment: ELISA. In general terms: An ELISA detects its analyte on a solid surface through an enzyme-linked reagent.

B1: biotinylated rmIL11 (ligand, UniProt P47873 22-199)
chain: PGPPAGSPRVSSDPRADLDSAVLLTRSLLADTRQLAAQMRDKFPADGDHSLDSLPTLAMSAGTLGSLQLPGVLTRLRVDLMSYLRHVQWLRRAGGPSLKTLEPELGALQARLERLLRRLQLLMSRLALPQAAPDQPVIPLGPPASAWGSIRAAHAILGGLHLTLDWAVRGLLLLKTRL
modifications: biotinylated (site not stated)
Turning to B1, the binding result was “binds”.
